{
  "source": "paper PMC6356585",
  "about": "(Viruses, 2018)",
  "tested_on": "C6/36 cells",
  "format": "cell-based, Ae. albopictus",
  "details": "10 µM",
  "note": "Counter-ions that a name gives are not always drawn.",
  "data": [
    {"smiles": "CCCCc1oc2ccccc2c1C(=O)c1cc(I)c(OCCN(CC)CC)c(I)c1", "note": "[Amiodarone HCl]", "values": [
      {"measurement": "C6/36 Viability", "result": "44 ± 15.3% of untreated control"}
    ]}
  ]
}
